This is an account of results in US20250082754A1 (NANJING LEGEND BIOTECH, published 2025).

Chains of the proteins cited; added tags and fusions are not shown. Residues count along the entry.
UniProt P20138, residues 145-228: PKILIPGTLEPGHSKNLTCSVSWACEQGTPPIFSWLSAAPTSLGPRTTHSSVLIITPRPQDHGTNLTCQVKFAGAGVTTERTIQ

No constants are given. Whether binding was seen depends on the method and setting. Some entries that bind do so weakly or less than the wild type.

The assay deals with T1, Human CD33 C2 domain (human, UniProt P20138).
T1 construct: C2 domain only; also called C2-set Ig-like domain of human CD33
The assay is described as follows: +/- column 'Human CD33 C2 domain' of the drawn table; legend: cell binding properties; assay not named on the sheet.

B1: AS200728C (scFv)
scFv (VL-linker-VH): QAVVTQLSSMSGSPGQTVTITCTGSSSNIGGGYYLSWYQQLPGTAPKLLIYNVNNRASGVPNRFSGSKTGSLASLTITGLQAEDEADYYCGSYDESLSYVFGGGTHLTVLGGGGSGGGGSGGGGSQVQLVESGGGLVQPGGSLRVSCAASGFTFKNYYMGWVRQAPGKGLEWISGINSGGEVTTYADSVKDRFTISRDNAKNTLYLQMNSLKPDDTALYYCAGGEGSSWYPDYYYGNGYWGEGTLITVSS
notes: Format as for f1; also called anti-CD33 IgG1 AS200728C; AS200728C scFv
Take B1: the binding result is reported as “binds”.

B2: AS199757 (scFv)
scFv (VL-linker-VH): NFMLTQPPSVSGSPGQKFTISCTGSSNNIGDNYVNWYQHLPGTAPKLLIYSNNNRASGVPDRFSGSKSGSSASLTITGLQAEDEADYYCSSWDDSLSGFVFGGGTHLTVLGGGGSGGGGSGGGGSAVQLVESGGGLVQPGGSLRLTCAASGFTFDNYGMSWVRQAPGKGLEWVSAIMWNGGTTYYAEPMKGRFTISRDNAKNTVYLQMNSLKSEDTAVYYCARHGSSWYAMDYWGQGTQVTVSS
notes: Format as for f1; also called anti-CD33 IgG1 AS199757; AS199757 scFv
As for B2, the binding result is “binds”.

B3: AS199911 (scFv)
scFv (VL-linker-VH): SYELTQPSALSVTLGQSAKITCQGDNFETTYVHWYQQKPGQAPVLVIYNDDSRPSGIPERFSGSNSGDRATLTISGAQAEDEGDYYCQSADTSGNAYVFGGGTHLTVLGGGGSGGGGSGGGGSAVQLVESGGGLVQPGGSLRLSCAASGFTFSRSDMSWVRQAPGKGLEWVSYINSGGGTNRYADSVKARFTIFRDNAKNTLYLQMNTLKPEDTAVYYCAKSGFDSDWIFGYLERWGQGTLVTVSS
notes: Format as for f1; also called anti-CD33 IgG1 AS199911; AS199911 scFv
For the molecule B3, the binding entry is reported as “binds”.

B4: AS199772 (scFv)
scFv (VL-linker-VH): SYELTQSPSVSVALRQAAKITCRGDNIETKYAYWYQQKPGQSPLLVIYKDDNRPSGIPERFSGSNSGNMATLTISGAQAEDEADYYCQVWDSSANWVFGGGTHLTVLGGGGSGGGGSGGGGSQVQLQESGGGLVQPGGSLRLSCAASGFTFSSYWMYWVRQAPGKGLEWVSAMNTGGGSTYYGDSVKGRFTVSRDNAKNTLALQMNSLKPEDTALYYCARSWGGMYSGGYYEYSGMDYWGKGTLVTVSS
notes: Format as for f1; also called anti-CD33 IgG1 AS199772; AS199772 scFv
B4: the binding entry was “binds”.

B5: AS188893 (scFv)
scFv (VL-linker-VH): SYELTQPSAVSVSLGQTARITCQGGNLGTSYVHWYQQKPGQAPVLVIYGDDSRPSGIPERFSGSSSGGTATLTISGAQAEDEADYYCQSYDSSSSVFGGGTHLTVLGGGGSGGGGSGGGGSQVQLQESGGGLVQPGGSLRLSCAASGFTFSNNWMYWVRQAPGKGLEWVSSIATGDGSTNSADSVKGRFTISRDNTKNMLYLQMNSLKSEDTALYYCAKGVNIDHDVGAGDYWGQGTQVTVSS
notes: Format as for f1; also called anti-CD33 IgG1 AS188893; AS188893 scFv
Regarding B5, the binding result is on record as “binds”.
